The nature of the data set: Volume change upon polymerization (monomer and polymer density by dry automatic pycnometer). It is filed as physicochemical. The conditions noted are these: polymerization with AIBN, 48 hours at 60° C. Here is the method: Volume change relative to monomer volume refers to the change in volume of the polymer relative to the volume of the monomer or monomers that are constituent components of the polymer. This volume change relative to monomer volume is obtained through the following equation by measuring the density of the monomer(s) at 25° C. prior to polymerization (monomer density) and the density of the polymer at 25° C. after polymerization (polymer density). ((Monomer density)−(Polymer density))/(Monomer density)×100(%)
First, polymerization of the obtained monomer (compound represented by structural formula (6)) was performed as follows.
A freezing ampoule (20 mL) was charged with 4.03 mg of AIBN (4 mol %), 440.2 mg (0.61 mmol) of Ad-MVCP, and 0.267 g (0.31 mL) of toluene, and the monomer was dissolved. Thereafter, freeze drying was performed three times and dissolved oxygen was removed. The freezing ampoule was immersed in an oil bath and was heated for 48 hours at 60° C. to polymerize the monomer. After polymerization, the freezing ampoule was cooled by liquid nitrogen to quench radicals. Next, 50 mL of toluene was added to the freezing ampoule in order to dissolve undissolved components other than the polymer and suction filtration was then performed. Polymer filtered onto filter paper as a result was washed with toluene and acetone, was vacuum dried for 48 hours at 100° C., and was collected as a white solid polymer. The collected polymer was used as an evaluation sample.
The volume change upon polymerization was calculated using the following equation by measuring the monomer density and polymer density of each sample prepared by the procedure described above using a dry automatic pycnometer (AccuPyc II 1340 produced by Shimadzu Corporation). ((Monomer density)−(Polymer density))/(Monomer density)×100(%)
A positive calculated value indicates volume expansion whereas a negative calculated value indicates volume shrinkage.
Note that in Comparative Example 3, polymerization of the monomer was performed by bulk polymerization based on the aforementioned document. […]
Molecule `C=CC1CC1(C(=O)OC12CC3CC(CC(C3)C1)C2)C(=O)OC12CC3CC(CC(C3)C1)C2` (stereo not drawn) [Comparative Example 2, 1,1-bis[(1-adamantyloxy)carbonyl]-2-vinylcyclopropane] gave a Conversion rate of 99.0%.

`C=CC1CC1(C(=O)OC12CC3CC(CC(C3)C1)C2)C(=O)OC12CC3CC(C1)CC(OC(=O)C1(C(=O)OC45CC6CC(CC(C6)C4)C5)CC1C=C)(C3)C2` (stereo not drawn) [Example 1, 1,3-bis[(1-adamantyloxycarbonyl-2-vinylcyclopropane-1-yl)carbonyloxy]adamantane] gave a Conversion rate of 98.0%. The same measure for “tricyclodecane dimethanol dimethacrylate [Comparative Example 1]”: 89.4%.

The values above are taken from patent publication US9580524B2, “Vinylcyclopropane, monomer composition, polymer, polymer composition, and article” (Dexerials Corporation, priority 2014, dated 2017).
